Test results from publication PMC9667317.
Results are given in words; binding and its absence hold for the method and conditions named.

Chains of the proteins cited; added tags and fusions are not shown.
UniProt P00441: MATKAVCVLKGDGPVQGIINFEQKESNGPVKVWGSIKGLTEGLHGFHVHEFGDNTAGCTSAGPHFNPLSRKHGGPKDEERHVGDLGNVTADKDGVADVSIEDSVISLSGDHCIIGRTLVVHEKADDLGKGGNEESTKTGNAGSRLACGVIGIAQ
UniProt P00442: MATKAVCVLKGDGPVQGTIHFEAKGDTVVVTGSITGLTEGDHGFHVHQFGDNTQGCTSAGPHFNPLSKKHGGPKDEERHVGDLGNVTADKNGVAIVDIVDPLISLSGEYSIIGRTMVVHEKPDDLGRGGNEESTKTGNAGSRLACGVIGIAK

Biological target: human WT 2Cu, 2Zn-SOD1 isolated from human erythrocytes (human) (UniProt P00441)
Assay: capillary electrophoresis; holo bovine SOD1 mixed with holo human SOD1 (both 2Cu, 2Zn, from erythrocytes), 15 μM dimer each ([SOD1]total = 30 μM), followed for 14 days; CE at 22 °C, storage at 15 °C, pH 7.4; both purified

Substance: bovine 2Cu, 2Zn-SOD1 isolated from cow erythrocytes (from UniProt P00442 1-152) (enzyme)
- binding: no binding (tested: 15 μM dimer each, after 14 days)
